This note sets out measurements from article PMC9837035.

By UniProt entry, the sequences of proteins in these tests, tags left out.
UniProt O95365: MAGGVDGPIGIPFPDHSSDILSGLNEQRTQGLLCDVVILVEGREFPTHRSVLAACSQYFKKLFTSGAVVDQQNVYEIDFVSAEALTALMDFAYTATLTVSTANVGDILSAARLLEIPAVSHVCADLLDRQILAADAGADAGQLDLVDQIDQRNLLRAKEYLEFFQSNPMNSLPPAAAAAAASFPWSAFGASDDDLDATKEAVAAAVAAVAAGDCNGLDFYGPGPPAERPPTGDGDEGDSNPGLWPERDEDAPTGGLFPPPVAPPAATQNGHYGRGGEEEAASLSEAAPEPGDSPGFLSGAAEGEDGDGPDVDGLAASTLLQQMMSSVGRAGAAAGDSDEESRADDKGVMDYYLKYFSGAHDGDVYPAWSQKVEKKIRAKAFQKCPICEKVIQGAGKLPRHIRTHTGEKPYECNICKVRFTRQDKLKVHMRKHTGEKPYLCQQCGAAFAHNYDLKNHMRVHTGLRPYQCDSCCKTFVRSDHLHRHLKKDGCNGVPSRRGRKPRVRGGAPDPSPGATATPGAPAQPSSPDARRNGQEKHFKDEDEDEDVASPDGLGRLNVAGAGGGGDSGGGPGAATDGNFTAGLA
UniProt Q9H165: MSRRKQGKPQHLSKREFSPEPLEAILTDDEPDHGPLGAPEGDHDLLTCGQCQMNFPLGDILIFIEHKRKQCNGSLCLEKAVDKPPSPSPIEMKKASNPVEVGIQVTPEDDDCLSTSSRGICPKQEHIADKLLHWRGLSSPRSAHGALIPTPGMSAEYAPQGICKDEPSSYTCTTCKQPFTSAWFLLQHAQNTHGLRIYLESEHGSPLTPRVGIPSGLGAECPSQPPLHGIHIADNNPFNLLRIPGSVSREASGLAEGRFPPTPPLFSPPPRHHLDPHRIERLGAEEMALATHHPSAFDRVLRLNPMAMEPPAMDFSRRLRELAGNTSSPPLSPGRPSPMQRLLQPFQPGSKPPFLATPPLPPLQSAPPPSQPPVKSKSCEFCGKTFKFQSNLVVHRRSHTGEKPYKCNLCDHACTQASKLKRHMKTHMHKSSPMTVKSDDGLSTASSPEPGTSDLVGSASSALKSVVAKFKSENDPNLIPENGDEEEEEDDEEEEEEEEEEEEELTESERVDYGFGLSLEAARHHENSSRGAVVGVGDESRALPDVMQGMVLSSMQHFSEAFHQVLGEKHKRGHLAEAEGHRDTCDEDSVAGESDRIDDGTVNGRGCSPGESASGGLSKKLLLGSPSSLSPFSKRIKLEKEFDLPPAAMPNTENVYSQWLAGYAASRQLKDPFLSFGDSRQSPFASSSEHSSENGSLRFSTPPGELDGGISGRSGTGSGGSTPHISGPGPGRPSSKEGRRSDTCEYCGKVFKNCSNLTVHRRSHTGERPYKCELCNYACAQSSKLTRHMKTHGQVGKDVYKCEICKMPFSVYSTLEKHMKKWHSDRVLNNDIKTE
UniProt Q96KQ7: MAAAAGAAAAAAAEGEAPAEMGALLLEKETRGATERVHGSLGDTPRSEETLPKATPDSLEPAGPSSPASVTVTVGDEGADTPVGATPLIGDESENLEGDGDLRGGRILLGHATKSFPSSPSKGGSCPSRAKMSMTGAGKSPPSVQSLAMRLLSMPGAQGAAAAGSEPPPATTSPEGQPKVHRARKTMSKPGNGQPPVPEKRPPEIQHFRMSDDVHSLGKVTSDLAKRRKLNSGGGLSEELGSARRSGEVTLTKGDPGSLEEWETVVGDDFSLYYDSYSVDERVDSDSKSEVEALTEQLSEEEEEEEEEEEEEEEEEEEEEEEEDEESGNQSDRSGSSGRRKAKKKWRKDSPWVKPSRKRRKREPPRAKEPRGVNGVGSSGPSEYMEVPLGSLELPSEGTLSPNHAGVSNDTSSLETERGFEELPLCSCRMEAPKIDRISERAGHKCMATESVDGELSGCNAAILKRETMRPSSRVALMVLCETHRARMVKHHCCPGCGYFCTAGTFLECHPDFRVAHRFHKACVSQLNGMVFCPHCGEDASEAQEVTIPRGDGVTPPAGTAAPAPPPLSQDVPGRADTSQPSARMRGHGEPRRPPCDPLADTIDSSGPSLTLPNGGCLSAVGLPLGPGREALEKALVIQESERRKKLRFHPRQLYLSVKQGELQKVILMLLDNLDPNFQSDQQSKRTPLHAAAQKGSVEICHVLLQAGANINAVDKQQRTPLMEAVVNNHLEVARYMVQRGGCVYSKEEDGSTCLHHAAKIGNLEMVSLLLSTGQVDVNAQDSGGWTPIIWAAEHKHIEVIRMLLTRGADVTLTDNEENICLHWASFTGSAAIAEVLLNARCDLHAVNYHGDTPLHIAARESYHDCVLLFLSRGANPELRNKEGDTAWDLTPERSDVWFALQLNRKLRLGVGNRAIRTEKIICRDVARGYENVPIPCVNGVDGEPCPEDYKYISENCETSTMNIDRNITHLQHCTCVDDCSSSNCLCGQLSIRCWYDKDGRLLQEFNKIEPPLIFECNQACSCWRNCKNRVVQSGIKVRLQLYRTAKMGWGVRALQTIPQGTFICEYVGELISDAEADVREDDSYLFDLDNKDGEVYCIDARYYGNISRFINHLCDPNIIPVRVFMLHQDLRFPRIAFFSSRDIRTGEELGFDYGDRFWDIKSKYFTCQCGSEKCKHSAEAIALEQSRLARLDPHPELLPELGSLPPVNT
UniProt Q14839: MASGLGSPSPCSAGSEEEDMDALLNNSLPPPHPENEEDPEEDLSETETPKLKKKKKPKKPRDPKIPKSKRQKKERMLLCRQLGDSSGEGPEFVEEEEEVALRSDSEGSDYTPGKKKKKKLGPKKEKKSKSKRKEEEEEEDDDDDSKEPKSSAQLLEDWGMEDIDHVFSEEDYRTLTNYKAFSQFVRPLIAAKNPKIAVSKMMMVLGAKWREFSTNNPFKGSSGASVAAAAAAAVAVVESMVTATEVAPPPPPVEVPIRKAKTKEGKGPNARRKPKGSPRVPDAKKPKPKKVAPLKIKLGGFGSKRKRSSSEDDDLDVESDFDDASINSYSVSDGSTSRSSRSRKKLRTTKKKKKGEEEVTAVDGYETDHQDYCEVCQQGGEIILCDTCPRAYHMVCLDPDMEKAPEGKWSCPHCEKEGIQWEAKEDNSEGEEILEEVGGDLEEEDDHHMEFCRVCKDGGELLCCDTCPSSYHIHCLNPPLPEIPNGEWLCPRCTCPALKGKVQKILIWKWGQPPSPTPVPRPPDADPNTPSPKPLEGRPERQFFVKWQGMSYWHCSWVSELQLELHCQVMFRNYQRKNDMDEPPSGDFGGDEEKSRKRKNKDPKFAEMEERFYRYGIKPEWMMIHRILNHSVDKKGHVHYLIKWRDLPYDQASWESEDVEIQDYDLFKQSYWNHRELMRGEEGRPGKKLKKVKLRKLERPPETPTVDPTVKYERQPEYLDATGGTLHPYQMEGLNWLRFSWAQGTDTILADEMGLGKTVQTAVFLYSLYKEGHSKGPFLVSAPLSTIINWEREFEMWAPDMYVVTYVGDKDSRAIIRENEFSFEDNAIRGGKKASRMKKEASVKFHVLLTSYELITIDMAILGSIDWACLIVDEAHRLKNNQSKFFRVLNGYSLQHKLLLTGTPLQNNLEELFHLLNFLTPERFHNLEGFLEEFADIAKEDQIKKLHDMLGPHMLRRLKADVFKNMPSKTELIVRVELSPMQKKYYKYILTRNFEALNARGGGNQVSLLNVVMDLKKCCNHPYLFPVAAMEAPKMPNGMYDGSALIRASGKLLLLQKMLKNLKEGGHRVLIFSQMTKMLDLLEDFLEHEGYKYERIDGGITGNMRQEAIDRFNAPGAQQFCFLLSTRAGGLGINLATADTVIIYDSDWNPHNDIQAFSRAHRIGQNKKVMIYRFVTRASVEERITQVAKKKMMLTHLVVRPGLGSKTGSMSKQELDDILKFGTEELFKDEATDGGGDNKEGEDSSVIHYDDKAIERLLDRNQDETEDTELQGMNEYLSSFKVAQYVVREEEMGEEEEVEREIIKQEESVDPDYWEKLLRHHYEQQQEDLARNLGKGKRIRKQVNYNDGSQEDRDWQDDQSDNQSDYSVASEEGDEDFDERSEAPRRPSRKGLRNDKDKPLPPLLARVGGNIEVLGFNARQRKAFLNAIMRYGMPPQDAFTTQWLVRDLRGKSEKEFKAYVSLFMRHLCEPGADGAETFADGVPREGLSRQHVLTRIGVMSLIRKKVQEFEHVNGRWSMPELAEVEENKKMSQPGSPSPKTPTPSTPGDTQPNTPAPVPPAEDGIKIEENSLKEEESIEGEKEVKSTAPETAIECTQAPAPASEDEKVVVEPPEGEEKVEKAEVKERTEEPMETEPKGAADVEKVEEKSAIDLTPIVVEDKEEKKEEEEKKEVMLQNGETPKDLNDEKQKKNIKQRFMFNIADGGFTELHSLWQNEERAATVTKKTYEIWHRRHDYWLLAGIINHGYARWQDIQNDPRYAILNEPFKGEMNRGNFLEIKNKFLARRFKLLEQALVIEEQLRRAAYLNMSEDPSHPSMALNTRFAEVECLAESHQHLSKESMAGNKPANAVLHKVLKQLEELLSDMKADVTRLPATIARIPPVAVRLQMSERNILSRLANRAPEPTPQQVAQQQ

Results are given in words; binding and its absence hold for the method and conditions named. Binding seen in cells or lysates may run through a third protein. Some binding calls cover weakened binding; strength is not graded here.

One experiment has as its target FLAG-tagged ZBTB7A (UniProt O95365). In words: co-IP; HEK293T cells transfected with plasmids, lysed in NETN buffer (50 mM Tris-HCl pH 7.5, 150 mM NaCl, 5 mM EDTA, 0.1% NP-40); anti-FLAG M2 affinity gel overnight at 4 °C; immunoblot. (In general: In western blotting, separated proteins are transferred to a membrane and probed.)
A further experiment concerns the target FLAG-tagged BCL11A (UniProt Q9H165). The description is as above.
The target of experiment [1] is Biotinylated histone H3K9me2 peptide. Put plainly: pull-down; 3 μg biotinylated histone peptide on streptavidin sepharose beads, NETN buffer with 0.5% BSA; HUDEP-2 cell lysate added, overnight at 4 °C; immunoblot; only the target purified.

Turning to “G9a (from UniProt Q96KQ7 1-1210) (enzyme)”, the binding result in the experiment with FLAG-tagged ZBTB7A and with FLAG-tagged BCL11A was “binds” in each case.

Turning to “CHD4 (endogenous, HUDEP-2) (from UniProt Q14839 1-1912)”, the binding result in experiment [1] is recorded as “binds”.

Consider “ZBTB7A (endogenous, HUDEP-2) (from UniProt O95365 1-584)”, for which the binding entry in experiment [1] is given as “binds”.

As for “BCL11A (endogenous, HUDEP-2) (from UniProt Q9H165 1-835)”, the binding result in experiment [1] was “binds”.

For the substance “His-tagged CHD4 (from UniProt Q14839 1-1912)”, the binding entry in the experiment with FLAG-tagged ZBTB7A and with FLAG-tagged BCL11A was “binds” each time.
